Measurements reported in PubChem BioAssay AID1053208 (Peter MacCallum Cancer Centre, 2014)
Aim: 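Genes whose silencing cuts survival of bone tumour cells only with doxorubicin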 (primary screen). Cell system: mouse osteosarcoma cells, early-passage culture from an engineered mouse model of fibroblastic bone tumour. Knock-down reagent: siRNA pool against mouse genes, 40 nM. Duration: about 120 h (48 h before drug, then 72 h with drug). Challenge: doxorubicin 100 nM for 72 h, roughly 30-40% inhibitory dose. Read-out: 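Luminescent ATP signal taken as viability with or without 100 nM doxorubicin for 72 h; mean of two wells set against non-targeting siRNA and turned into robust z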. Reading the numbers: viability z-score with doxorubicin and doxorubicin viability vs non-targeting: higher = more viable cells under doxorubicin; viability z-score without drug: higher = more viable cells with knock-down alone; z-score of drug to no-drug ratio: higher = less drug sensitisation by knock-down. Call rule: 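a pool counts as active when its viability z-score with doxorubicin is -2 or below and its z-score without drug lies between -2 and 2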.
Here is one part, drawn at random, of about 17,000 reagents tested. Of all reagents, 788 (4.7%) got an active call. 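Calls rest on z-score classes alone; an extra cut-off of viability at most 70% of control was not applied to them.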 Entries without a mark were called inactive.

no.	gene	combined z-score class	viability z-score with doxorubicin	viability z-score without drug	z-score of drug to no-drug ratio	doxorubicin viability vs non-targeting
1	Rps7 (ribosomal protein S7)	low cell count with and without drug	-7.31	-5.9	-5.62	0.29
2	Psmd11 (proteasome (prosome, macropain) 26S subunit, non-ATPase, 11)	low cell count with and without drug	-4.27	-4.55	-1.8	0.56
3	C1qa (complement component 1, q subcomponent, alpha polypeptide)	no change with or without drug	-0.11	0.34	-0.22	0.93
4	Susd6 (sushi domain containing 6)	no change with or without drug	-1.12	-0.17	-1.01	0.84
5	Pwwp3a (PWWP domain containing 3A, DNA repair factor)	low cell count with doxorubicin only (active)	-2.7	0.17	-2.81	0.7
6	Capn9 (calpain 9)	no change with or without drug	-0.9	-0.17	-0.79	0.86
7	C1qtnf3 (C1q and tumor necrosis factor related protein 3)	no change with or without drug	1.91	1.01	1.35	1.11
8	Gm9871 (predicted gene 9871)	no change with or without drug	-0.79	-1.85	0.67	0.87
9	Rpl10a (ribosomal protein L10A)	no change with or without drug	-0.9	-0.51	-0.56	0.86
10	Morn2 (MORN repeat containing 2)	low cell count with and without drug	-2.14	-2.36	-0.56	0.75
11	9430015G10Rik (RIKEN cDNA 9430015G10 gene)	low cell count with doxorubicin only (active)	-2.47	-0.17	-2.36	0.72
12	S1pr1 (sphingosine-1-phosphate receptor 1)	no change with or without drug	-0.45	-1.18	0.45	0.9
13	LOC67527 (murine leukemia retrovirus)	no change with or without drug	0.79	-0.67	1.46	1.01
14	Saxo4 (stabilizer of axonemal microtubules 4)	low cell count without drug only	-1.57	-4.22	1.8	0.8
15	Ubxn11 (UBX domain protein 11)	no change with or without drug	-0.9	0.17	-0.9	0.86
16	Ooep (oocyte expressed protein)	no change with or without drug	0.22	0.51	0	0.96

Entries listed above called active:
gene	combined z-score class	viability z-score with doxorubicin	viability z-score without drug	z-score of drug to no-drug ratio	doxorubicin viability vs non-targeting
Pwwp3a (PWWP domain containing 3A, DNA repair factor)	low cell count with doxorubicin only (active)	-2.7	0.17	-2.81	0.7
9430015G10Rik (RIKEN cDNA 9430015G10 gene)	low cell count with doxorubicin only (active)	-2.47	-0.17	-2.36	0.72

The listing continues:
no.	gene	combined z-score class	viability z-score with doxorubicin	viability z-score without drug	z-score of drug to no-drug ratio	doxorubicin viability vs non-targeting
17	Cabp5 (calcium binding protein 5)	no change with or without drug	0	0.51	-0.22	0.94
18	Cimap2 (ciliary microtubule associated protein 2)	no change with or without drug	-0.22	1.35	-1.01	0.92
19	Myom2 (myomesin 2)	no change with or without drug	1.8	0.34	1.69	1.1
20	Thop1 (thimet oligopeptidase 1)	no change with or without drug	0.34	-0.51	0.79	0.97
21	Neurog2 (neurogenin 2)	no change with or without drug	0.79	1.35	0	1.01
22	Zfp692 (zinc finger protein 692)	no change with or without drug	-0.22	0.34	-0.34	0.92
23	TNRC6	no change with or without drug	-1.69	1.18	-2.36	0.79
24	Ankrd44 (ankyrin repeat domain 44)	no change with or without drug	-1.8	-1.52	-0.79	0.78
25	Copz1 (coatomer protein complex, subunit zeta 1)	no change with or without drug	-1.57	-1.01	-0.9	0.8
26	Tesc (tescalcin)	no change with or without drug	1.12	0.51	0.9	1.04
27	Nat8f3 (N-acetyltransferase 8 (GCN5-related) family member 3)	no change with or without drug	-1.69	-0.34	-1.46	0.79
28	Lmntd1 (lamin tail domain containing 1)	no change with or without drug	-0.22	0.34	-0.34	0.92
29	Hrk	high cell count without drug only	0.67	2.36	-0.67	1
30	Cd5 (CD5 antigen)	no change with or without drug	-1.35	-0.17	-1.24	0.82
31	Gsdmc2 (gasdermin C2)	high cell count without drug only	0.45	2.19	-0.79	0.98
32	Ptbp1 (polypyrimidine tract binding protein 1)	no change with or without drug	0	1.01	-0.56	0.94
33	Mns1 (meiosis-specific nuclear structural protein 1)	no change with or without drug	-0.9	-1.18	0	0.86
34	Ghr (growth hormone receptor)	high cell count with doxorubicin only	2.59	1.18	1.91	1.17
35	4632433K11Rik (RIKEN cDNA 4632433K11 gene)	no change with or without drug	1.46	0.84	1.01	1.07
36	Polr1c (polymerase (RNA) I polypeptide C)	low cell count with doxorubicin only (active)	-2.47	-0.51	-2.25	0.72
37	Gdpd1 (glycerophosphodiester phosphodiesterase domain containing 1)	no change with or without drug	1.12	0.51	0.9	1.04
38	Fam167b (family with sequence similarity 167, member B)	no change with or without drug	0.9	-0.67	1.57	1.02
39	Slfn2 (schlafen 2)	no change with or without drug	0.22	-0.17	0.45	0.96
40	Gask1b (golgi associated kinase 1B)	no change with or without drug	1.8	1.35	1.01	1.1
41	Rassf5 (Ras association (RalGDS/AF-6) domain family member 5)	no change with or without drug	0.56	1.01	0	0.99
42	Vbp1 (von Hippel-Lindau binding protein 1)	no change with or without drug	-0.45	0.34	-0.56	0.9
43	Rex1bd (required for excision 1-B domain containing)	no change with or without drug	1.12	-0.84	2.02	1.04
44	Or4a81 (olfactory receptor family 4 subfamily A member 81)	no change with or without drug	0	-0.84	0.67	0.94
45	Rusf1 (RUS family member 1)	no change with or without drug	-0.22	0.17	-0.22	0.92
46	St3gal3 (ST3 beta-galactoside alpha-2,3-sialyltransferase 3)	no change with or without drug	0	-0.17	0.22	0.94
47	Prap1 (proline-rich acidic protein 1)	no change with or without drug	0	-0.51	0.45	0.94
48	Med8 (mediator complex subunit 8)	low cell count with doxorubicin only (active)	-3.37	-0.17	-3.37	0.64
49	Or6z6 (olfactory receptor family 6 subfamily Z member 6)	no change with or without drug	1.01	0.17	1.01	1.03
50	Ppcdc (phosphopantothenoylcysteine decarboxylase)	no change with or without drug	1.12	0.51	0.9	1.04
